# According to paper PMC12448893:
# Sequences of proteins named here, by UniProt entry; tags and fusion partners are left off. A change or cut given only in a name is not applied to a line headed by its entry.
# UniProt Q13547: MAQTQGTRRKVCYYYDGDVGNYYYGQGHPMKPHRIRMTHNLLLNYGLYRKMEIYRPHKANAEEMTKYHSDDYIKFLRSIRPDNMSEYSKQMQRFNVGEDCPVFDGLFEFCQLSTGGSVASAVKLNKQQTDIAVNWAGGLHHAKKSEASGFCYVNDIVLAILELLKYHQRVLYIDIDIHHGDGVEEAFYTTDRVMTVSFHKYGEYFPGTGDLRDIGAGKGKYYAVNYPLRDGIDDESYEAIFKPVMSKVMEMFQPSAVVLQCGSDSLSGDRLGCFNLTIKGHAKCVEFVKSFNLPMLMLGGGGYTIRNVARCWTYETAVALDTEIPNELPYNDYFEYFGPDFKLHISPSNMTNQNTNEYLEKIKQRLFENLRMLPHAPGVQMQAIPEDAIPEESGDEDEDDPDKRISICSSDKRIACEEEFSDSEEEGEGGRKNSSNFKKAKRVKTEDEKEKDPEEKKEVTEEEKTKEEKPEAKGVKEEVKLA
# These are yes or no findings as the source states them, for the method shown. Binding seen in cells or lysates may run through a third protein. These calls come from enrichment with a bait or labelling near it, and not all partners need be listed.
# How the values were obtained:
# Experiment in all cases: affinity purification with mass spectrometry; Flag IP (anti-Flag on Protein G Dynabeads) of HDAC1-Flag WT, Y48E or E63R from extracts of Hdac1/2 DKO mouse ESCs 5 days after OHT; coIP buffer 250 mM NaCl, 20 mM Tris-HCl pH 7.5, 0.5% IGEPAL, 1 mM EDTA; 4°C overnight; LC-MS/MS; control DKO cells lacking a Flag epitope
# [1] = target: HDAC1-Flag (wild type), stably expressed in Hdac1/2 double knockout mouse ESCs (UniProt Q13547)
# [2] = target: HDAC1–Y48E (Flag), stably expressed in Hdac1/2 double knockout mouse ESCs (UniProt Q13547)
# [3] = target: HDAC1–E63R (Flag), stably expressed in Hdac1/2 double knockout mouse ESCs (UniProt Q13547)
binding [1],binding [2],binding [3],Binder
binds,binds,binds,"SIN3B (endogenous, mouse ESCs) (protein, UniProt Q62141 1-1098) MAHAGSGGSAGRGFGGSRWGRSGSGGHEKLPVHVEDALTYLDQVKIRFGSDPATYNGFLEIMKEFKSQSIDTPGVIRRVSQLFHEHPDLIVGFNAFLPLGYRIDIPKNGKLNIQSPLSSQDNSHSHGDCGEDFKQMSYKEDRGQVPLESDSVEFNNAISYVNKIKTRFLDHPEIYRSFLEILHTYQKEQLHTKGRPFRGMSEEEVFTEVANLFRGQEDLLSEFGQFLPEAKRSLFTGNGSCEMNSGQKNEEKSLEHNKKRSRPSLLRPVSAPAKKKMKLRGTKDLSIAAVGKYGTLQEFSFFDKVRRVLKSQEVYENFLRCIALFNQELVSGSELLQLVSPFLGKFPELFAQFKSFLGVKELSFAPPMSDRSGDGISREIDYASCKRIGSSYRALPKTYQQPKCSGRTAICKEVLNDTWVSFPSWSEDSTFVSSKKTPYEEQLHRCEDERFELDVVLETNLATIRVLESVQKKLSRMAPEDQEKLRLDDCLGGTSEVIQRRAIHRIYGDKAPEVIESLKRNPATAVPVVLKRLKAKEEEWREAQQGFNKIWREQYEKAYLKSLDHQAVNFKQNDTKALRSKSLLNEIESVYDEHQEQHSEGRSAPSSEPHLIFVYEDRQILEDAAALISYYVKRQPAIQKEDQGTIRQLLHRFLPSLFFSQQCPGTSDDSADERDRDRDSAEPERRRPTDEKPPADASPEPPKVLDDVYSLFFANNNWYFFLRLHQTLCARLLKIYRQAQKQLLEHRREQEREQLLCEGRREKAADPAMELRLKQPSEVELEEYYPAFLDMVRSLLEGSIDPTQYEDTLREMFTIHAYIGFTMDKLVQNIARQLHHLVSDDVCLKVVELYLNEQQRGAAGGNLSSRCVRAARETSYQWKAERCMADENCFKVMFLQRRGQVIMTIELLDTEEAQTEDPVEVQHLARYVEQYVGSEGASSSSTEGFLLKPVFLQRNLKKFRRWQCEQVRAMRGEAKSSWKRLMGVESACDVDCRFRLGTHKMVFIVNSEDYMYRRGTLCRAKQVQPLVLLRHHRHFEEWHGRWLEDNVTVAAAGLVQDWLMGEEEEDMVPCKTLCETAHVHGLPVTRYRVQYSRRPASP"
binds,binds,binds,"SIN3A (endogenous, mouse ESCs) (protein, UniProt Q60520 1-1274) MKRRLDDQESPVYAAQQRRIPGSTEAFSHQHRVLAPAPPVYEAVSETMQSATGIQYSVAPNYQVSAVPQSSGSHGPAIAAVHSSHHHPTAVQPHGGQVVQSHAHPAPPVAPVQGQQQFQRLKVEDALSYLDQVKLQFGSQPQVYNDFLDIMKEFKSQSIDTPGVISRVSQLFKGHPDLIMGFNTFLPPGYKIEVQTNDMVNVTTPGQVHQIPTHGIQPQPQPPPQHPSQPSSQSAPTPAQPAPQPTAAKVSKPSQLQAHTPASQQTPPLPPYASPRSPPVQPHTPVTISLGTAPSLQNNQPVEFNHAINYVNKIKNRFQGQPDIYKAFLEILHTYQKEQRNAKEAGGNYTPALTEQEVYAQVARLFKNQEDLLSEFGQFLPDANSSVLLSKTTAEKVDSVRNDHGGTVKKPQLNNKPQRPSQNGCQIRRHSGTGATPPVKKKPKLMSLKESSMADASKHGVGTESLFFDKVRKALRSAEAYENFLRCLVIFNQEVISRAELVQLVSPFLGKFPELFNWFKNFLGYKESVHLESFPKERATEGIAMEIDYASCKRLGSSYRALPKSYQQPKCTGRTPLCKEVLNDTWVSFPSWSEDSTFVSSKKTQYEEHIYRCEDERFELDVVLETNLATIRVLEAIQKKLSRLSAEEQAKFRLDNTLGGTSEVIHRKALQRIYADKAADIIDGLRKNPSIAVPIVLKRLKMKEEEWREAQRGFNKVWREQNEKYYLKSLDHQGINFKQNDTKVLRSKSLLNEIESIYDERQEQATEENAGVPVGPHLSLAYEDKQILEDAAALIIHHVKRQTGIQKEDKYKIKQIMHHFIPDLLFAQRGDLSDVEEEEEEEMDVDEATGAPKKHNGVGGSPPKSKLLFSNTAAQKLRGMDEVYNLFYVNNNWYIFMRLHQILCLRLLRICSQAERQIEEENREREWEREVLGIKRDKSDSPAIQLRLKEPMDVDVEDYYPAFLDMVRSLLDGNIDSSQYEDSLREMFTIHAYIAFTMDKLIQSIVRQLQHIVSDEVCVQVTDLYLAENNNGATGGQLNSQTSRSLLESAYQRKAEQLMSDENCFKLMFIQSQGQVQLTVELLDTEEENSDDPVEAERWSDYVERYMSSDTTSPELREHLAQKPVFLPRNLRRIRKCQRGREQQEKEGKEGNSKKTMENVESLDKLECRFKLNSYKMVYVIKSEDYMYRRTALLRAHQSHERVSKRLHQRFQAWVDKWTKEHVPREMAAETSKWLMGEGLEGLVPCTTTCDTETLHFVSINKYRVKYGTVFKAP"
